The list does not hold the whole screen: it is rich in T/C values a quarter to a half above the control, in often repeated tests (any T/C) and in doses without a T/C. Other doses and runs of a compound stand elsewhere. T/C gives the treated animals as a percentage of the vehicle group. Some entries give survivors of the animals treated and no T/C: the source files T/C as zero there, which appears to mark a toxic dose or a test without result, not a measured value. Some doses without a T/C left all or most animals alive at the check, yet need not have been tolerated: the source hardly ever lists a survival T/C far under the control, and the zero likely stands for such cases as well. Survivors were counted at the toxicity check, usually on the fifth day, unless a day is given; later deaths do not show. Schedule codes are those of the source, taken here to give the interval after Q, in days (D) or hours (H), and the number of doses after X. Brackets with × give the number of equal values in this list. Some doses were run more than once; their values stand side by side, smallest first. Where survival is the endpoint, this PubChem deposit counts one and a half times the control or more as active, and values a quarter to a half above the control carry no call in these data; other NCI protocols may use other cut-offs. Some T/C values carry the count of animals alive at the toxicity check (mostly the fifth day); where none is given, no animal had died by that day.
System: P388 leukemia ip, CD2F1 mice, survival T/C
Assay: NCI In Vivo Anticancer Drug Screen. Data for tumor model P388 Leukemia (intraperitoneal) in CD2F1 (CDF1) mice
Conditions: T/C endpoint: median survival time, higher T/C = longer survival
[1] = dose: 50.0 mg/kg/injection, schedule: Q01DX005 (ip), vehicle: saline with Tween-80
[2] = dose: 240.0 mg/kg/injection, schedule: Q01DX005 (ip), vehicle: saline with Tween-80
[3] = dose: 200.0 mg/kg/injection, schedule: Q01DX005 (ip), vehicle: Klucel (hydroxypropylcellulose) (HPC)
[4] = dose: 12.5 mg/kg/injection, schedule: Q01DX009 (ip), vehicle: saline
[5] = dose: 25.0 mg/kg/injection, schedule: Q01DX009 (ip), vehicle: saline
[6] = dose: 50.0 mg/kg/injection, schedule: Q01DX009 (ip), vehicle: saline
[7] = dose: 100.0 mg/kg/injection, schedule: Q01DX009 (ip), vehicle: saline
[8] = dose: 30.0 mg/kg/injection, schedule: Q01DX005 (ip), vehicle: saline with Tween-80
[9] = dose: 60.0 mg/kg/injection, schedule: Q01DX005 (ip), vehicle: saline with Tween-80
[10] = dose: 120.0 mg/kg/injection, schedule: Q01DX005 (ip), vehicle: saline with Tween-80
[11] = dose: 200.0 mg/kg/injection, schedule: Q01DX005 (ip), vehicle: saline with Tween-80

COc1ccc(NC(=O)C2C(=O)N(c3ccc(OC)cc3)C(=O)/C2=N/N=C(N)N)cc1 (centres undefined)
survivor count (dose: 200.0 mg/kg/injection, schedule: Q04DX002 (ip), vehicle: saline with Tween-80): 2 of 6
survivor count (dose: 400.0 mg/kg/injection, schedule: Q04DX002 (ip), vehicle: saline with Tween-80): 2 of 6

O=[N+]([O-])c1ccc(N(CCO)CCO)c2c1no[n+]2[O-]
T/C (dose: 3.12 mg/kg/injection, schedule: Q01DX005 (ip), vehicle: saline with Tween-80): 125 % of control
T/C (dose: 6.25 mg/kg/injection, schedule: Q01DX005 (ip), vehicle: saline with Tween-80): 128 % of control
T/C (dose: 12.5 mg/kg/injection, schedule: Q01DX005 (ip), vehicle: saline with Tween-80): 129 and 134 % of control
T/C (dose: 25.0 mg/kg/injection, schedule: Q01DX005 (ip), vehicle: saline with Tween-80): 131 % of control (2×)
T/C (dose: 32.0 mg/kg/injection, schedule: Q04DX003 (ip), vehicle: saline): 129 % of control
T/C [1]: 131 and 145 % of control
T/C (dose: 64.0 mg/kg/injection, schedule: Q04DX003 (ip), vehicle: saline): 146 % of control

CC(=O)c1c(CO[N+](=O)[O-])n([O-])c2ccccc2[n+]1=O
survivor count [2]: 4 of 6

c1nc(N2CCCCC2)c2[nH]cnc2n1
survivor count [3]: 1 of 5

CCN(CC)CCOc1ccc2c(c1)C(=O)c1cc(OCCN(CC)CC)ccc1-2
survivor count [4]: 6 of 6
survivor count (dose: 100.0 mg/kg/injection, schedule: Q01DX009 (ip), vehicle: saline with Tween-80): 3 of 6
survivor count (dose: 200.0 mg/kg/injection, schedule: Q01DX009 (ip), vehicle: saline with Tween-80): 0 of 6

O=C1c2ccccc2-c2cn(-c3ccccc3)c3cccc1c23
survivor count [3]: 3 of 6

COc1cc(C=Nc2cccc(Br)c2)ccc1N(CCCl)CCCl
T/C (dose: 2.2 mg/kg/injection, schedule: Q01DX009 (ip), vehicle: saline with Tween-80): 128 % of control
T/C (dose: 6.25 mg/kg/injection, schedule: Q01DX009 (ip), vehicle: saline with Tween-80): 138 % of control
T/C (dose: 7.5 mg/kg/injection, schedule: Q01DX009 (ip), vehicle: saline with Tween-80): 147 % of control

O=[N+]([O-])C(CO)(CO)CC(F)(F)F
survivor count (dose: 3.13 mg/kg/injection, schedule: Q04DX003 (ip), vehicle: saline): 6 of 6
survivor count (dose: 12.5 mg/kg/injection, schedule: Q04DX003 (ip), vehicle: saline): 6 of 6

COc1cccc2c1C(=O)c1c(O)c3c(c(O)c1C2=O)C[C@@](O)(/C(C)=N/NC(=O)c1ccc(S(N)(=O)=O)cc1)C[C@@H]3OC1CC(N)C(O)C(C)O1 (some centres undefined)
T/C (dose: 0.38 mg/kg/injection, schedule: Q01DX009 (ip), vehicle: water): 136 % of control
T/C (dose: 0.39 mg/kg/injection, schedule: Q01DX009 (ip), vehicle: water): 141 % of control
T/C (dose: 0.78 mg/kg/injection, schedule: Q01DX009 (ip), vehicle: water): 133 % of control
T/C (dose: 1.56 mg/kg/injection, schedule: Q01DX009 (ip), vehicle: water): 140 % of control
T/C (dose: 18.8 mg/kg/injection, schedule: Q04DX003 (ip), vehicle: water): 135 % of control [5 of 6 alive]
survivor count (dose: 25.0 mg/kg/injection, schedule: Q01DX009 (ip), vehicle: water): 6 of 6
T/C (dose: 37.5 mg/kg/injection, schedule: Q04DX003 (ip), vehicle: water): 145 % of control
T/C (dose: 50.0 mg/kg/injection, schedule: Q01DX001 (ip), vehicle: water): 132 % of control
T/C (dose: 75.0 mg/kg/injection, schedule: Q04DX003 (ip), vehicle: water): 133 % of control
survivor count (dose: 100.0 mg/kg/injection, schedule: Q01DX001 (ip), vehicle: water): 5 of 6
survivor count (dose: 200.0 mg/kg/injection, schedule: Q01DX001 (ip), vehicle: water): 0 of 6
survivor count (dose: 400.0 mg/kg/injection, schedule: Q01DX001 (ip), vehicle: water): 0 of 6

O=[N+]([O-])c1ccc(NN=NCCF)cc1
survivor count (dose: 14.2 mg/kg/injection, schedule: Q01DX005 (ip), vehicle: other): 3 of 5
survivor count (dose: 28.4 mg/kg/injection, schedule: Q01DX005 (ip), vehicle: other): 0 of 5
survivor count (dose: 56.8 mg/kg/injection, schedule: Q01DX005 (ip), vehicle: other): 0 of 5

Cc1ccc(S(=O)(=O)N/N=C/c2c(Cl)n(C(=O)c3ccccc3F)c3ccccc23)cc1
survivor count (dose: 100.0 mg/kg/injection, schedule: Q01DX001 (ip), vehicle: Klucel (hydroxypropylcellulose) (HPC)): 6 of 6
survivor count (dose: 200.0 mg/kg/injection, schedule: Q01DX001 (ip), vehicle: Klucel (hydroxypropylcellulose) (HPC)): 6 of 6

COc1cc(C(CC(C)=O)c2cc3c(cc2OC(C)=O)OCO3)cc(OC)c1OC(C)=O (centres undefined)
survivor count [2]: 6 of 6

Cc1cc(OCc2nnc3n2S(=O)(=O)c2ccccc2N3C)ccc1Cl
survivor count [2]: 6 of 6

COC1=CC(=O)C=C(CO)C1=O
survivor count [4]: 4 of 6
survivor count [5]: 0 of 6
survivor count [6]: 0 of 6
survivor count [7]: 0 of 6
survivor count (dose: 200.0 mg/kg/injection, schedule: Q01DX009 (ip), vehicle: saline): 0 of 6

NC(=S)N/N=C/c1ccc(OC(F)(F)F)cn1
T/C (dose: 25.0 mg/kg/injection, schedule: Q01DX009 (ip), vehicle: saline with Tween-80): 135 % of control [4 of 6 alive]

C1CC[C@H]2OCN[C@@H]2C1
T/C (dose: 100.0 mg/kg/injection, schedule: Q04DX002 (ip), vehicle: Klucel (hydroxypropylcellulose) (HPC)): 127 % of control

COc1ccc(/C=C/CC2Cc3cc4c(cc3OC2c2ccc(OC)cc2)OCO4)cc1 (centres undefined)
survivor count (dose: 15.0 mg/kg/injection, schedule: Q01DX005 (ip), vehicle: saline with Tween-80): 6 of 6 (2×)
survivor count [8]: 6 of 6
survivor count [9]: 6 of 6
survivor count [10]: 6 of 6
survivor count [2]: 6 of 6

c1ccc(-c2nc3cc4c(cc3n3cccc23)oc2ccccc24)cc1
survivor count [11]: 4 of 5

CN1NC(c2ccccc2)=C(C#N)C(=O)CC1c1ccc(Cl)cc1 (centres undefined)
T/C (dose: 15.0 mg/kg/injection, schedule: Q01DX005 (ip), vehicle: saline with Tween-80, evaluated on day 20): 95, 112, 115 % of control
T/C (dose: 15.0 mg/kg/injection, schedule: Q01DX005 (ip), vehicle: saline with Tween-80, evaluated on day 30): 180 % of control
survivor count [8]: 6 of 6
survivor count [9]: 0 of 6 and 1 of 6
survivor count [10]: 0 of 6
survivor count [2]: 0 of 6

O=C(Nc1cc(Cl)ccc1Cl)Nc1ccc(Cl)cc1C(=O)c1ccccc1
survivor count [9]: 6 of 6
survivor count [10]: 6 of 6

Oc1ccc(/C=N/N=C/c2ccc(O)c(O)c2)cc1O
T/C [1]: 128 % of control
T/C [11]: 128 % of control

CC[n+]1c(-c2ccccc2)c2cc(NCCCN)ccc2c2ccc(N)cc21
survivor count [5]: 0 of 3
survivor count [6]: 0 of 3
survivor count [7]: 0 of 3

O=[N+]([O-])c1cccc(C(O)(C(F)(F)F)C(F)(F)F)c1
survivor count (dose: 200.0 mg/kg/injection, schedule: Q04DX002 (ip), vehicle: suspension in saline): 4 of 6
survivor count (dose: 400.0 mg/kg/injection, schedule: Q04DX002 (ip), vehicle: suspension in saline): 0 of 6

O=NNc1ccc(-c2ccccc2)cn1
T/C (dose: 6.25 mg/kg/injection, schedule: Q01DX009 (ip), vehicle: saline): 126 % of control
T/C [4]: 137 % of control
survivor count [4]: 1 of 6
survivor count [5]: 0 of 6
survivor count [6]: 0 of 6

NC(Cc1cccc(NP(=S)(N2CC2)N2CC2)c1)C(=O)O (centres undefined)
T/C (dose: 50.0 mg/kg/injection, schedule: Q04DX003 (ip), vehicle: saline): 131 % of control
survivor count (dose: 600.0 mg/kg/injection, schedule: Q04DX003 (ip), vehicle: saline): 6 of 6
